The values that follow come from article PMC9457257.

By UniProt entry, the sequences of proteins in these tests, tags left out. Where a name states a change or a piece, a line headed by the entry shows the natural chain unless it says otherwise.
UniProt Q653H7: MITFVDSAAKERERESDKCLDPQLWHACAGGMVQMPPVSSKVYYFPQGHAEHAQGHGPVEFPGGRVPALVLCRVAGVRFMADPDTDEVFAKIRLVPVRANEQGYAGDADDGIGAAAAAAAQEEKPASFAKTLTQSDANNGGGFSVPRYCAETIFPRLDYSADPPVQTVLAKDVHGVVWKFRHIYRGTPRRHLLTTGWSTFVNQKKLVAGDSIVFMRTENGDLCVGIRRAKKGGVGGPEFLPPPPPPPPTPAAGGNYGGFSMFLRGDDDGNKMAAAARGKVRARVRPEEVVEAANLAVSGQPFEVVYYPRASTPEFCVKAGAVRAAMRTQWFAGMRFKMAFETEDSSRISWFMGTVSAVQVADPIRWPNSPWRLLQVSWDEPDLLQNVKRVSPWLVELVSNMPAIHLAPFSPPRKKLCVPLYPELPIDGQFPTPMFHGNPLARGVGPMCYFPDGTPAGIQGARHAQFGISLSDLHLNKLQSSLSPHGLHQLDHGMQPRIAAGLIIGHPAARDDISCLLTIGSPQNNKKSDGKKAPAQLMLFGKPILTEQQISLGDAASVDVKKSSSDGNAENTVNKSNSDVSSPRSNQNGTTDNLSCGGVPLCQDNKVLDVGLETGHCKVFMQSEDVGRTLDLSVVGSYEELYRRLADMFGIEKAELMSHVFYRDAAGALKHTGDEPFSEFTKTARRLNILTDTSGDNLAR

The exact form of at least one protein or probe is not confirmed. No signal at the amounts used counts as a negative. For some assays here: At least one verdict rests on a figure or table, not on a statement of the authors. For some assays here: A weaker result is weaker than the reference pair of the same experiment.

The first data set has as its system GST-OsARF2 (Oryza sativa (rice)). The data set is described as follows: EMSA. The note with it: Pierce LightShift chemiluminescent EMSA kit (20148), manufacturer's protocol; pH and temperature not stated; recombinant protein; protein details: GST (N-terminal); label: 5'-biotin.
In the case of “AAATTGTCACTGTCGCGGTACTGAATTATTCAGACAAT (double strand) [ES8 (AuxRE)]”, the binding result is recorded as “no binding”.

For the sequence “AGAAGCTCGGCAAGCGTGTCGCTAATCCGATACTAACTCC (double strand) [ES4 (AuxRE)]”, the binding result is “no binding”.

In the case of “CAATGTCAAAACCGCGGCATCATATCTCCATTGACGT (double strand) [ES7 (AuxRE)]”, the binding result is “no binding”.

Take “CTCCTCCTCCTACATCTCCGCCGCTCCTCACTTCCTCCACTCGATTTCCTTTCTTGGCC (double strand) [ES1-1A]”: the binding result is listed as “binds more weakly”.

For “CTCCTCCTCCTACGTCACCGCCGCTCCTCACTTCCTCCACTCGATTTCCTTTCTTGGCC (double strand) [ES1-4A]”, the binding result is “binds more weakly”.

For the sequence “CTCCTCCTCCTACGTCTACGCCGCTCCTCACTTCCTCCACTCGATTTCCTTTCTTGGCC (double strand) [ES1-5A]”, the binding result was “binds more weakly”.

Regarding “CTCCTCCTCCTACGTCTCCGCCGCTCCTCACTTCCTCCACTCGATTTCCTTTCTTGGCCT (double strand) [ES1 (OsSUT1 promoter, SuRE1)]”, the binding result is given as “binds”.

Turning to “CTCCTCCTCTGACACAGGGGTGTGCAGGTTTGTGTTTGTGCGTGGCGCGTCCGCC (double strand) [ES3 (AuxRE)]”, the binding result is given as “no binding”.

Turning to “CTCTGCCGCCTACGAGAGACACCCCCACCCCCCCCCCCCC (double strand) [EA2 (SuRE2 of OsARF2 promoter)]”, the binding result is “binds”.

For the sequence “TCATTTACTCCGCTGGTCTCTCTTCTCCTATTCACTC (double strand) [EA7 (SuRE7 of OsARF2 promoter)]”, the binding result is listed as “binds”.

Regarding “TGCTTCGCCTCTCTCGCTCGTCTCTCCAAACACAAACCCACCACCTCCTCCTCCTCCTCC (double strand) [ES2 (OsSUT1 promoter, SuRE2)]”, the binding result was “binds”.

Regarding “TTTGGATAACTACTCGACAGTACAAACGAATTA (double strand) [ES5 (AuxRE)]”, the binding result is “no binding”.

Staying with this data set, now noted: reduced or abolished; Pierce LightShift chemiluminescent EMSA kit (20148), manufacturer's protocol; pH and temperature not stated; recombinant protein; protein details: GST (N-terminal); label: 5'-biotin.
“CTCCTCCTCCTACCGCCGCTCCTCACTTCCTCCACTCGATTTCCTTTCTTGGCC (double strand) [ES1-Del]”: the binding result is reported as “binds more weakly”.

The next data set deals with GST-OsARF18 (Oryza sativa (rice)) (UniProt Q653H7). The data set is described as follows: EMSA. The settings on record: Pierce LightShift chemiluminescent EMSA kit (20148), manufacturer's protocol; pH and temperature not stated; recombinant protein; protein details: GST (N-terminal); label: 5'-biotin.
On to “CAGGTCTCGTTGGTCGCCGACAACGAGGTGCGTTTGCGTGCGTGCTGATCCAAAAATGGGATGAATATCTTTGACATTC (double strand) [EA1 of Fig. 4C (AuxRE1+AuxRE2; EMSA-OsARF2-1)]”, for which the binding result was “binds”.

In the case of “CAGGTCTCGTTGGTCGCCGACAACGAGGTGCGTTTGCGTGCGTGCTGATCCAAAAATGGGATGAATATCTTTGTCTTTC (double strand) [EMSA-OsARF2-2M (AuxRE2 mutated)]”, the binding result is “no binding”.

Take “TGCTTCGCCTCTCTCGCTCGTCTCTCCAAACACAAACCCACCACCTCCTCCTCCTCCTCC (double strand) [ES2 (OsSUT1 promoter, SuRE2)]”: the binding result is “binds”.

The data set is the same for the next values; noted with them: Pierce LightShift chemiluminescent EMSA kit (20148), manufacturer's protocol; pH and temperature not stated; recombinant protein; protein details: GST (N-terminal); label: 5'-biotin; letters put together from the description.
With “CAGGTCTCGTTGGTCGCCGTCTACGAGGTGCGTTTGCGTGCGTGCTGATCCAAAAATGGGATGAATATCTTTGACATTC (double strand) [EMSA-OsARF2-1M (AuxRE1 mutated)]”, the binding result was “binds”.
